PubChem BioAssay AID1224830, NIAID | 2016

Purpose: 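Regulators of TLR4 signalling towards TNF-alpha in macrophage-like cells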 (primary screen)
Cell system: human THP-1 monocytic leukaemia cells, TNF dual-luciferase reporter clone, PMA-differentiated to macrophage-like cells
Reagents: siRNA pool against human genes, 50 nM
Timing: LPS for 4 h, given about 3 days after siRNA transfection
Challenge: bacterial LPS (TLR4 ligand), 10 ng/ml
Read-out: 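Ratio of firefly to renilla light, scaled to the plate median and expressed as a robust z-score per replicate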
Scale: TNF reporter robust z-score: higher = stronger TNF reporter response to LPS
Call rule: 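Each well counts as active if its z-score is over 2.8 or under -1.5; controls are left without a call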
The deposit covers about 18,000 reagents; this is a part drawn at random. In the full data, about 2,900 (16%) got an active call. 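Calls are made per well; low scores hint the gene aids the LPS response, high scores that it dampens it.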 Repeated entries: four replicate wells of each siRNA pool.

| gene | TNF reporter robust z-score | outcome |
| --- | --- | --- |
| NEDD1 (NEDD1 gamma-tubulin ring complex targeting factor) | -0.41 | inactive |
| NEDD1 (NEDD1 gamma-tubulin ring complex targeting factor) | -0.77 | inactive |
| NEDD1 (NEDD1 gamma-tubulin ring complex targeting factor) | 0.12 | inactive |
| NEDD1 (NEDD1 gamma-tubulin ring complex targeting factor) | 0.2 | inactive |
| STX1A (syntaxin 1A) | -1.15 | inactive |
| STX1A (syntaxin 1A) | -1.79 | active |
| STX1A (syntaxin 1A) | -0.98 | inactive |
| STX1A (syntaxin 1A) | -1.01 | inactive |
| NAIF1 (nuclear apoptosis inducing factor 1) | -0.31 | inactive |
| NAIF1 (nuclear apoptosis inducing factor 1) | 0.21 | inactive |
| NAIF1 (nuclear apoptosis inducing factor 1) | -0.12 | inactive |
| NAIF1 (nuclear apoptosis inducing factor 1) | -0.04 | inactive |
| DENND3 (DENN domain containing 3) | -0.62 | inactive |
| DENND3 (DENN domain containing 3) | -0.59 | inactive |
| DENND3 (DENN domain containing 3) | 0.18 | inactive |
| DENND3 (DENN domain containing 3) | -0.36 | inactive |
| PLAUR (plasminogen activator, urokinase receptor) | -0.09 | inactive |
| PLAUR (plasminogen activator, urokinase receptor) | 0.99 | inactive |
| PLAUR (plasminogen activator, urokinase receptor) | -0.04 | inactive |
| PLAUR (plasminogen activator, urokinase receptor) | 0.44 | inactive |
| STPG4 (sperm-tail PG-rich repeat containing 4) | -0.01 | inactive |
| STPG4 (sperm-tail PG-rich repeat containing 4) | 1 | inactive |
| STPG4 (sperm-tail PG-rich repeat containing 4) | -0.12 | inactive |
| STPG4 (sperm-tail PG-rich repeat containing 4) | 0.57 | inactive |

Entries above whose gene name begins with D or d (4):
| gene | TNF reporter robust z-score | outcome |
| --- | --- | --- |
| DENND3 (DENN domain containing 3) | -0.62 | inactive |
| DENND3 (DENN domain containing 3) | -0.59 | inactive |
| DENND3 (DENN domain containing 3) | 0.18 | inactive |
| DENND3 (DENN domain containing 3) | -0.36 | inactive |

Next records follow:
| gene | TNF reporter robust z-score | outcome |
| --- | --- | --- |
| CYP19A1 (cytochrome P450 family 19 subfamily A member 1) | -1.46 | inactive |
| CYP19A1 (cytochrome P450 family 19 subfamily A member 1) | -0.48 | inactive |
| CYP19A1 (cytochrome P450 family 19 subfamily A member 1) | -0.13 | inactive |
| CYP19A1 (cytochrome P450 family 19 subfamily A member 1) | -1.22 | inactive |
| ZNF703 (zinc finger protein 703) | 1.1 | inactive |
| ZNF703 (zinc finger protein 703) | 1.15 | inactive |
| ZNF703 (zinc finger protein 703) | -0.3 | inactive |
| ZNF703 (zinc finger protein 703) | 1.11 | inactive |
| PABPC4 (poly(A) binding protein cytoplasmic 4) | -1.09 | inactive |
| PABPC4 (poly(A) binding protein cytoplasmic 4) | -0.9 | inactive |
| PABPC4 (poly(A) binding protein cytoplasmic 4) | -1.35 | inactive |
| PABPC4 (poly(A) binding protein cytoplasmic 4) | -0.57 | inactive |
| FNDC3A (fibronectin type III domain containing 3A) | -0.21 | inactive |
| FNDC3A (fibronectin type III domain containing 3A) | -1.16 | inactive |
| FNDC3A (fibronectin type III domain containing 3A) | -1.21 | inactive |
| FNDC3A (fibronectin type III domain containing 3A) | -1.22 | inactive |
| FNDC3A (fibronectin type III domain containing 3A) | 0.5 | inactive |
| FNDC3A (fibronectin type III domain containing 3A) | 1.55 | inactive |
| FNDC3A (fibronectin type III domain containing 3A) | 1.41 | inactive |
| FNDC3A (fibronectin type III domain containing 3A) | 0.92 | inactive |
| MYH13 (myosin heavy chain 13) | 0.54 | inactive |
| MYH13 (myosin heavy chain 13) | -0.6 | inactive |
| MYH13 (myosin heavy chain 13) | -0.79 | inactive |
| MYH13 (myosin heavy chain 13) | 0.21 | inactive |
